{
  "source": "the supplement of paper PMC8728848",
  "binders": {"B1": {"name": "Aap arpt (Staphylococcus epidermidis) (protein)", "chain": "NNEAPQMSSTLQAEEGSNAEAPQSEPTKAEEGGNAEAAQSEPTKAEEGGNAEAPQSEPTKAEEGGNAEAAQSEPTKTEEGSNVKAAQSEPTKAEEGSNAEAPQSEPTKTEEGSNAKAAQSEPTKAEEGGNAEAAQSEPTKTEEGSNAEAPQSEPTKAEEGGYAEAPQSEPTKTEEGGNAEAPNVPTIKA"}},
  "assay_in_all_cases": "glycan array binding signal (z-score within array); higher = stronger binding",
  "settings_in_all_cases": "glycan notation: IUPAC condensed, linker removed",
  "key": {"Gal3S(b1-4)Glc": {"target": "Gal3S(b1-4)Glc", "summary_of_the_method": "(§1)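 The Consortium for Functional Glycomics database supplied 3228 glycan arrays, of which those lacking an available protein sequence were dropped. The binding signal, a within-array Z-score, was averaged across arrays of the same protein sequence and across linkers. Negative scores can be read as non-binding.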"}, "Gal3S(b1-4)Glc6S": {"target": "Gal3S(b1-4)Glc6S", "summary_of_the_method": "as §1"}, "Gal3S(b1-4)GlcNAc": {"target": "Gal3S(b1-4)GlcNAc", "summary_of_the_method": "as §1"}, "[1]": {"target": "Gal3S(b1-4)[Fuc(a1-3)]Glc6S", "summary_of_the_method": "as §1"}, "[2]": {"target": "Gal3S(b1-4)[Fuc(a1-3)]GlcNAc", "summary_of_the_method": "as §1"}, "[3]": {"target": "Gal3S(b1-4)[Fuc(a1-3)]GlcNAc6S", "summary_of_the_method": "as §1"}, "Gal3S4S(b1-4)GlcNAc": {"target": "Gal3S4S(b1-4)GlcNAc", "summary_of_the_method": "as §1"}, "Gal3S6S(b1-4)GlcNAc": {"target": "Gal3S6S(b1-4)GlcNAc", "summary_of_the_method": "as §1"}, "Gal3S6S(b1-4)GlcNAc6S": {"target": "Gal3S6S(b1-4)GlcNAc6S", "summary_of_the_method": "as §1"}, "Gal4S(b1-4)GlcNAc": {"target": "Gal4S(b1-4)GlcNAc", "summary_of_the_method": "as §1"}, "Gal4S6S(b1-4)GlcNAc": {"target": "Gal4S6S(b1-4)GlcNAc", "summary_of_the_method": "as §1"}, "Gal6P(b1-4)GlcNAc": {"target": "Gal6P(b1-4)GlcNAc", "summary_of_the_method": "as §1"}, "Gal6S(b1-3)GlcNAc": {"target": "Gal6S(b1-3)GlcNAc", "summary_of_the_method": "as §1"}, "Gal6S(b1-3)GlcNAc6S": {"target": "Gal6S(b1-3)GlcNAc6S", "summary_of_the_method": "as §1"}, "Gal6S(b1-4)Glc": {"target": "Gal6S(b1-4)Glc", "summary_of_the_method": "as §1"}, "Gal6S(b1-4)Glc6S": {"target": "Gal6S(b1-4)Glc6S", "summary_of_the_method": "as §1"}, "Gal6S(b1-4)GlcNAc": {"target": "Gal6S(b1-4)GlcNAc", "summary_of_the_method": "as §1"}, "Gal6S(b1-4)GlcNAc6S": {"target": "Gal6S(b1-4)GlcNAc6S", "summary_of_the_method": "as §1"}, "GalNAc(a1-3)Gal": {"target": "GalNAc(a1-3)Gal", "summary_of_the_method": "as §1"}, "GalNAc(a1-3)GalNAc": {"target": "GalNAc(a1-3)GalNAc", "summary_of_the_method": "as §1"}, "[4]": {"target": "GalNAc(a1-3)GalNAc(b1-3)Gal(a1-4)Gal(b1-4)Glc", "summary_of_the_method": "as §1"}, "[5]": {"target": "GalNAc(a1-3)GalNAc(b1-3)Gal(a1-4)Gal(b1-4)GlcNAc", "summary_of_the_method": "as §1"}, "GalNAc(b1-3)Gal": {"target": "GalNAc(b1-3)Gal", "summary_of_the_method": "as §1"}, "[6]": {"target": "GalNAc(b1-3)Gal(a1-4)Gal(b1-4)GlcNAc", "summary_of_the_method": "as §1"}, "[7]": {"target": "GalNAc(b1-3)Gal(a1-4)Gal(b1-4)GlcNAc(b1-3)Gal(b1-4)Glc", "summary_of_the_method": "as §1"}, "[8]": {"target": "GalNAc(b1-3)Gal(a1-6)Gal(b1-4)Glc", "summary_of_the_method": "as §1"}, "GalNAc(b1-3)GalNAc": {"target": "GalNAc(b1-3)GalNAc", "summary_of_the_method": "as §1"}, "GalNAc(b1-3)GlcNAc": {"target": "GalNAc(b1-3)GlcNAc", "summary_of_the_method": "as §1"}, "GalNAc(b1-4)Gal(b1-4)Glc": {"target": "GalNAc(b1-4)Gal(b1-4)Glc", "summary_of_the_method": "as §1"}, "GalNAc(b1-4)GlcNAc": {"target": "GalNAc(b1-4)GlcNAc", "summary_of_the_method": "as §1"}, "[9]": {"target": "GalNAc(b1-4)GlcNAc(b1-2)Man", "summary_of_the_method": "as §1"}, "[10]": {"target": "GalNAc(b1-4)GlcNAc(b1-2)Man(a1-3)[GalNAc(b1-4)GlcNAc(b1-2)Man(a1-6)]Man(b1-4)GlcNAc(b1-4)GlcNAc", "summary_of_the_method": "as §1"}, "[11]": {"target": "GalNAc(b1-4)GlcNAc(b1-3)GalNAc(b1-4)GlcNAc", "summary_of_the_method": "as §1"}, "GalNAc(b1-4)GlcNAc6S": {"target": "GalNAc(b1-4)GlcNAc6S", "summary_of_the_method": "as §1"}, "GalNAc(b1-6)GalNAc": {"target": "GalNAc(b1-6)GalNAc", "summary_of_the_method": "as §1"}, "GalNAc3S(b1-4)GlcNAc": {"target": "GalNAc3S(b1-4)GlcNAc", "summary_of_the_method": "as §1"}, "GalNAc3S(b1-4)GlcNAc3S": {"target": "GalNAc3S(b1-4)GlcNAc3S", "summary_of_the_method": "as §1"}, "[12]": {"target": "GalNAc3S(b1-4)[Fuc(a1-3)]GlcNAc", "summary_of_the_method": "as §1"}, "GalNAc4S6S(b1-4)GlcNAc": {"target": "GalNAc4S6S(b1-4)GlcNAc", "summary_of_the_method": "as §1"}, "GalNAc6S(b1-4)GlcNAc": {"target": "GalNAc6S(b1-4)GlcNAc", "summary_of_the_method": "as §1"}, "Glc(a1-4)Glc": {"target": "Glc(a1-4)Glc", "summary_of_the_method": "as §1"}, "[13]": {"target": "Glc(a1-4)Glc(a1-4)Glc(a1-4)Glc", "summary_of_the_method": "as §1"}, "Glc(a1-6)Glc(a1-6)Glc": {"target": "Glc(a1-6)Glc(a1-6)Glc", "summary_of_the_method": "as §1"}, "[14]": {"target": "Glc(a1-6)Glc(a1-6)Glc(a1-6)Glc", "summary_of_the_method": "as §1"}, "Glc(b1-4)Glc": {"target": "Glc(b1-4)Glc", "summary_of_the_method": "as §1"}},
  "note": "This is one part of the list.",
  "data": [
    {"binder": "B1", "values": [
      {"measurement": "glycan array binding signal (z-score)", "setting": "Gal3S(b1-4)Glc", "value": 1.59},
      {"measurement": "glycan array binding signal (z-score)", "setting": "Gal3S(b1-4)Glc6S", "value": -0.477},
      {"measurement": "glycan array binding signal (z-score)", "setting": "Gal3S(b1-4)GlcNAc", "value": -1.36},
      {"measurement": "glycan array binding signal (z-score)", "setting": "[1]", "value": 1.06},
      {"measurement": "glycan array binding signal (z-score)", "setting": "[2]", "value": -0.457},
      {"measurement": "glycan array binding signal (z-score)", "setting": "[3]", "value": 0.881},
      {"measurement": "glycan array binding signal (z-score)", "setting": "Gal3S4S(b1-4)GlcNAc", "value": -0.317},
      {"measurement": "glycan array binding signal (z-score)", "setting": "Gal3S6S(b1-4)GlcNAc", "value": -0.119},
      {"measurement": "glycan array binding signal (z-score)", "setting": "Gal3S6S(b1-4)GlcNAc6S", "value": 1.02},
      {"measurement": "glycan array binding signal (z-score)", "setting": "Gal4S(b1-4)GlcNAc", "value": -0.336},
      {"measurement": "glycan array binding signal (z-score)", "setting": "Gal4S6S(b1-4)GlcNAc", "value": 0.847},
      {"measurement": "glycan array binding signal (z-score)", "setting": "Gal6P(b1-4)GlcNAc", "value": 0.547},
      {"measurement": "glycan array binding signal (z-score)", "setting": "Gal6S(b1-3)GlcNAc", "value": -1.93},
      {"measurement": "glycan array binding signal (z-score)", "setting": "Gal6S(b1-3)GlcNAc6S", "value": 0.54},
      {"measurement": "glycan array binding signal (z-score)", "setting": "Gal6S(b1-4)Glc", "value": -0.15},
      {"measurement": "glycan array binding signal (z-score)", "setting": "Gal6S(b1-4)Glc6S", "value": -0.409},
      {"measurement": "glycan array binding signal (z-score)", "setting": "Gal6S(b1-4)GlcNAc", "value": 0.078},
      {"measurement": "glycan array binding signal (z-score)", "setting": "Gal6S(b1-4)GlcNAc6S", "value": 0.812},
      {"measurement": "glycan array binding signal (z-score)", "setting": "GalNAc(a1-3)Gal", "value": -0.674},
      {"measurement": "glycan array binding signal (z-score)", "setting": "GalNAc(a1-3)GalNAc", "value": -1.38},
      {"measurement": "glycan array binding signal (z-score)", "setting": "[4]", "value": 0.342},
      {"measurement": "glycan array binding signal (z-score)", "setting": "[5]", "value": -1.01},
      {"measurement": "glycan array binding signal (z-score)", "setting": "GalNAc(b1-3)Gal", "value": 1.73},
      {"measurement": "glycan array binding signal (z-score)", "setting": "[6]", "value": -0.362},
      {"measurement": "glycan array binding signal (z-score)", "setting": "[7]", "value": -0.809},
      {"measurement": "glycan array binding signal (z-score)", "setting": "[8]", "value": -0.992},
      {"measurement": "glycan array binding signal (z-score)", "setting": "GalNAc(b1-3)GalNAc", "value": 1.53},
      {"measurement": "glycan array binding signal (z-score)", "setting": "GalNAc(b1-3)GlcNAc", "value": -0.422},
      {"measurement": "glycan array binding signal (z-score)", "setting": "GalNAc(b1-4)Gal(b1-4)Glc", "value": 0.457},
      {"measurement": "glycan array binding signal (z-score)", "setting": "GalNAc(b1-4)GlcNAc", "value": -0.143},
      {"measurement": "glycan array binding signal (z-score)", "setting": "[9]", "value": 0.101},
      {"measurement": "glycan array binding signal (z-score)", "setting": "[10]", "value": -0.991},
      {"measurement": "glycan array binding signal (z-score)", "setting": "[11]", "value": -0.524},
      {"measurement": "glycan array binding signal (z-score)", "setting": "GalNAc(b1-4)GlcNAc6S", "value": -0.172},
      {"measurement": "glycan array binding signal (z-score)", "setting": "GalNAc(b1-6)GalNAc", "value": -0.924},
      {"measurement": "glycan array binding signal (z-score)", "setting": "GalNAc3S(b1-4)GlcNAc", "value": 0.505},
      {"measurement": "glycan array binding signal (z-score)", "setting": "GalNAc3S(b1-4)GlcNAc3S", "value": 0.934},
      {"measurement": "glycan array binding signal (z-score)", "setting": "[12]", "value": -0.983},
      {"measurement": "glycan array binding signal (z-score)", "setting": "GalNAc4S6S(b1-4)GlcNAc", "value": 1.06},
      {"measurement": "glycan array binding signal (z-score)", "setting": "GalNAc6S(b1-4)GlcNAc", "value": 1.13},
      {"measurement": "glycan array binding signal (z-score)", "setting": "Glc(a1-4)Glc", "value": 1.05},
      {"measurement": "glycan array binding signal (z-score)", "setting": "[13]", "value": 1.34},
      {"measurement": "glycan array binding signal (z-score)", "setting": "Glc(a1-6)Glc(a1-6)Glc", "value": 0.429},
      {"measurement": "glycan array binding signal (z-score)", "setting": "[14]", "value": 0.308},
      {"measurement": "glycan array binding signal (z-score)", "setting": "Glc(b1-4)Glc", "value": 1.12}
    ]}
  ]
}
